# In PubChem BioAssay AID504648 (National Center for Advancing Translational Sciences (NCATS), 2011):
# Values joined by “and” are separate entries in the source; they are usually repeats but may differ in a detail not shown here. Identical values can stand only once. About 610 (0.16%) of roughly 390,000 compounds were called active. Inconclusive means that the source gave no clear call. Such entries were picked first, then a sample of the others. Calls come from the whole dose curve; as a rule, active = well fitted inhibition curve with a large enough effect; inconclusive = small, poorly fitted or top-dose-only effect, or effect the other way, or another doubt; inactive = no such curve, though single readings can be large or run the other way. Where the call is inconclusive, the potency comes from a doubtful curve fit.
# Experiment: Nrf2 qHTS screen for inhibitors: counterscreen for cytotoxicity
# Details: A549 ARE-Fluc cells, CellTiter-Fluor viability, 18-24 h; series mostly up to 46 µM
# Method in brief: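 A549 ARE-Fluc cells in 5% FBS OPTI-MEM, 5000 cells/well, rested 2 h then exposed to compounds in concentration-response for 18-24 h at 37 °C. Viability by CellTiter-Fluor fluorescence (Ex 405/Em 525) after 30 min; luciferase luminescence (BugLite, 15 min, RT) read afterwards.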
# Potency is the fitted concentration of half-maximal effect.
row,Compound,Potency
1,COc1ccc(C(CCN2CCCC(C)C2)c2c(OC)cc(OC)c3c(C)cc(=O)oc23)cc1 (stereo unspecified),"inconclusive: 23.1 µM [falling, partial curve] and inconclusive: 20.6 µM [falling, partial curve]"
2,CCOCC(=O)NC1CCc2cc(OC)c(OC)c(OC)c2-c2ccc(SC)c(=O)cc21 (stereo unspecified),"inconclusive: 2.06 µM [falling, partial curve, poor fit]"
3,Cc1cccc(N=C2SC(C)CN2C(=O)CN2C(=O)NC3(CCCC3)C2=O)c1 (stereo unspecified),"inconclusive: 25.9 µM [falling, partial curve, poor fit]"
4,CC(C)(C)c1ccc(C(=O)NCCOc2ccccc2F)cc1,inactive
5,O=C1C=Cc2cccc3ccc(O)c1c23,"inconclusive: 1.64 µM [falling, partial curve, poor fit]"
6,COc1ccc(-c2nc3c(C(=O)NCCN(C)C)cccc3c3ccccc23)cc1,"inconclusive: 16.4 µM [falling, single point]"
7,COc1ccccc1Nc1nc(N)nc(CN2CCC(Cc3ccccc3)CC2)n1,"inconclusive: 4.11 µM [activator, partial curve, poor fit]"
8,COc1ccc2[nH]c3c(c2c1)CCN1C(=O)C(CC(=O)NCCCN(C)C)C[C@H](C(=O)N2CCCCC2)[C@@]31C (stereo partly specified),"inconclusive: 23.1 µM [activator, partial curve, poor fit]"
9,C=CC(=O)Nc1ccc(N(C)c2ccnc(Nc3ccc(N4CCN(C)CC4)cc3)n2)cc1,active: 7.31 µM
10,COc1ccc(NS(=O)(=O)c2ccc(N3CCOCC3)c(NC(=O)c3ccco3)c2)cc1,"inconclusive: 7.31 µM [activator, partial curve, poor fit]"
11,COC(=O)C(C)Sc1nc2c(cnn2-c2ccccc2)c(=O)[nH]1 (stereo unspecified),"inconclusive: 3.66 µM [activator, partial curve, poor fit]"
12,CC[C@@]12C(=O)N(c3cccc(Cl)c3)C(=O)N1[C@H](c1ccc(Br)cc1)[C@@H]1C(=O)N(C(C)(C)C)C(=O)[C@@H]12,inactive
13,CS(=O)(=O)c1ccc(S(=O)CC(=O)Oc2ccc(Cl)cc2)c([N+](=O)[O-])c1 (stereo unspecified),"inconclusive: 29.1 µM [falling, single point]"
14,COc1cc(/C=C(\C#N)c2nc3ccccc3[nH]2)ccc1Oc1ccc([N+](=O)[O-])cn1,"inconclusive: 2.59 µM [activator, partial curve, poor fit]"
15,O=C(Cn1c(=O)n(CCc2ccccc2)c(=O)c2cccnc21)Nc1ccc(F)cc1,inactive
16,CCn1ccc(=N)cc1,inactive
17,CCc1ccc(-n2c(=O)c3c4c(sc3n(Cc3cc(=O)n5c(C)cccc5n3)c2=O)CCC4)cc1,inactive
18,CC(=O)OCCn1c2nc(=O)[nH]c(=O)c-2nc2cc(C)c(C)cc21,"inconclusive: 7.31 µM [activator, partial curve, poor fit]"
19,C=CCOc1c(Cl)cc(/C=N/O)cc1OC,"inconclusive: 9.2 µM [activator, partial curve]"
20,Cc1cc(C)n2c(SCc3ccc(Cl)cc3Cl)nnc2n1,"inconclusive: 14.6 µM [activator, partial curve, poor fit]"
21,O=C1C=C(Nc2ccccc2)c2ccccc2C1=O,"inconclusive: 29.1 µM [falling, single point]"

row,Compound,Potency
1,CCOc1cc(C=C(C(=O)OC)C(=O)OC)ccc1OCc1ccc([N+](=O)[O-])cc1,"inconclusive: 25.9 µM [falling, single point]"
2,COc1ccc(C(=O)NCCN(C)C)c2nc3ccccc3cc12,"inconclusive: 16.4 µM [falling, partial curve, poor fit]"
3,Cc1cc(NC(=O)CSc2nc(C)c(C)n2CC(C)C)no1,"inconclusive: 16.4 µM [falling, partial curve, poor fit]"
4,O=C(C1CCN(c2ncnc3c2nc2n3CCCCC2)CC1)N1CCN(c2ccccc2F)CC1,inactive
5,O=C(NCCc1ccccc1)c1nc2c(nnn2Cc2ccccc2Cl)c(=O)[nH]1,"inconclusive: 29.1 µM [falling, partial curve, poor fit]"
6,O=c1c2c(nc(NCCO)n1CC1CCCCC1)-c1ccccc1CC21CCCC1,"inconclusive: 25.9 µM [falling, partial curve]"
7,c1csc(CNc2ncnc3cc(-c4ccc5c(c4)OCO5)ccc23)c1,inactive
8,O=C(C[C@@H]1C/C=C\CCC(=O)O[C@H](c2ccccc2)CNC1=O)N[C@H](CO)Cc1ccccc1,inactive
9,CC[C@]12c3[nH]c4ccc(Cl)cc4c3CCN1C(=O)[C@@H](CC(=O)NCc1cccc(C(F)(F)F)c1)C[C@@H]2C(=O)N1CCN(C(=O)c2ccco2)CC1,"inconclusive: 29.1 µM [falling, single point]"
10,CCC1CCCCN1S(=O)(=O)c1ccc(NC(=O)c2nc(S(C)(=O)=O)ncc2Cl)cc1 (stereo unspecified),"inconclusive: 23.1 µM [falling, single point]"
11,CCN(CC)CCCNC(=O)c1cc(-c2ccccc2)c(N2CCCCC2)s1,"inconclusive: 29.1 µM [falling, partial curve, poor fit]"
12,CC1CCc2c(cc(-c3ccccc3)n2-c2ccc(C(=O)NC(C)C)cc2)C1 (stereo unspecified),"inconclusive: 29.1 µM [falling, partial curve, poor fit]"
13,CCc1c(C)sc2nc3c(C(=O)N4CCOCC4)cc(C(=O)c4cc(F)ccc4O)cn3c(=O)c12,"inconclusive: 23.1 µM [falling, partial curve, poor fit]"
14,CCOC(=O)c1oc2ccccc2c1CN1CCN(C)CC1,inactive
15,Cc1cccc(NC2=C/C(=N/S(=O)(=O)c3cccs3)c3ccccc3C2=O)c1,"inconclusive: 18.4 µM [falling, single point]"
16,Fc1ccc(Sc2ccccc2CNC2=NCCN2)cc1,inactive
17,Cn1c(=O)n(C)c2cc([N+](=O)[O-])c(N3CCN(C(=O)c4cccc(Cl)c4)CC3)cc21,inactive
18,COC(=O)c1sc(N2C(=O)C(O)=C(C(=O)c3ccc(C)o3)C2c2ccc([N+](=O)[O-])cc2)nc1C (stereo unspecified),"inconclusive: 29.1 µM [falling, single point]"
19,O=C(COC(=O)c1ccccc1NC(=O)c1ccco1)Nc1ccc2c(c1)OCO2,"inconclusive: 14.6 µM [falling, partial curve]"
20,C=CC[C@H](CC(=O)N(CCO)Cc1ccccc1)C(=O)NC[C@@H](OC(=O)[C@@H](CC=C)Cc1ccc(F)cc1)c1ccccc1,inactive
21,CCOC(=O)C1CCN(Cc2nc3ccccc3c(=O)n2-c2ccc(OCC)cc2)CC1,"inconclusive: 32.6 µM [falling, partial curve, poor fit]"

row,Compound,Potency
1,O=C(NCCCCCc1nc2ccccc2[nH]1)c1ccccc1Cl,"inconclusive: 23.1 µM [activator, partial curve, poor fit]"
2,COc1cc(OC)cc(C(=O)NCC(=O)OCC(=O)c2cc(C)n(Cc3ccco3)c2C)c1,inactive
3,O=C(NC1CCCCCC1)c1ccco1,inactive
4,COc1ccc(-c2cc(C(F)(F)F)n3nc(-c4ccccc4)cc3n2)cc1OC,"inconclusive: 29.1 µM [activator, partial curve, poor fit]"
5,CC(C)(C)C(=O)Nc1ccc(C(=O)NCc2cccnc2)cc1,"inconclusive: 32.6 µM [activator, partial curve, poor fit]"
6,CN1C2CCC1/C(=C\c1ccccc1)C(=O)/C2=C\c1ccccc1,"inconclusive: 18.4 µM [falling, single point]"
7,C(=N\Nc1nc2ccccc2s1)/c1cccs1,"inconclusive: 20.6 µM [falling, single point]"
8,Cn1cnnc1SCc1ccc(C(=O)n2ncc(C#N)c2N)cc1,"inconclusive: 25.9 µM [falling, single point]"
9,COC(=O)C(C)N1C(=O)S/C(=C\c2ccc(-c3ccc(C(=O)O)cc3C)o2)C1=O (stereo unspecified),"inconclusive: 20.6 µM [falling, partial curve, poor fit]"
10,COc1ccc(CCN(C)C(=O)Cc2ccc(-c3ccccc3)cc2)cc1OC,inactive
11,CC(=O)N(CC(=O)O)c1ccccc1,inactive
12,C=CC[C@H](CC(=O)N(CCO)Cc1ccccc1)C(=O)N[C@H](COC(=O)[C@H](CC=C)CC(=O)OC(C)(C)C)Cc1c[nH]c2ccccc12,"inconclusive: 29.1 µM [falling, single point]"
13,O=C(COc1ccccc1F)NNC(=O)Cc1ccc(S(=O)(=O)N2CCOCC2)s1,"inconclusive: 16.4 µM [falling, partial curve, poor fit]"
14,N#C/C(=C\c1ccc(O)c([N+](=O)[O-])c1)C(=O)NCc1ccccc1,"inconclusive: 18.4 µM [falling, partial curve]"
15,COc1ccc(Cn2c(O)c(C=Nc3ccccc3C(=O)O)c3ccccc3c2=O)cc1,"inconclusive: 25.9 µM [falling, partial curve, poor fit]"
16,Oc1ccc2ccccc2c1N=Nc1ccccn1,"inconclusive: 18.4 µM [falling, single point]"
17,CC(C)(C)NC(=O)C(c1ccc(-c2ccccc2)cc1)N(C[C@H]1CC[C@@H]([C@@H]2CC[C@H](CO)O2)O1)C(=O)c1ccc(C(C)(C)C)cc1 (stereo partly specified),"inconclusive: 23.1 µM [falling, partial curve]"
18,CC1CCN(c2nc(CN3CCCCC3)nc3scc(-c4ccccc4)c23)CC1,"inconclusive: 18.4 µM [falling, single point]"
19,O=C1CC(Sc2nnnn2C2CCCCC2)C(=O)N1c1ccccc1 (stereo unspecified),"inconclusive: 29.1 µM [falling, single point]"
